Legend:
HMC 1.2 cells = assay: CyQuant cell proliferation assay; type: cell-based, human; details: 72 h, cells bearing KIT D816V
HMC 1.1 cells = assay: CyQuant cell proliferation assay; type: cell-based; details: Homo sapiens, 72 h, read-out: IC50 HMC 1.1 proliferation

**Q.** What does the source list for `Cc1ccc(NC(=O)c2ccc(CN3CCN(C)CC3)cc2)cc1Nc1nccc(-c2cccnc2)n1` [imatinib]?
**A.** IC50 HMC 1.2 proliferation (HMC 1.2 cells): no activity; IC50 (HMC 1.1 cells): 10 nM

Reference: publication PMC3529859 (Leukemia, 2012)
